Results reported in PMC10992996.
Results are given in words; binding and its absence hold for the method and conditions named. Binding seen in cells or lysates may run through a third protein. Some binding calls cover weakened binding; strength is not graded here. For part of these data: Sequences can lack the tags named with a protein.

Sequences of proteins named here, by UniProt entry; tags and fusion partners are left off. A change or cut given only in a name is not applied to a line headed by its entry. Residues count along the entry.
UniProt Q5IJ48, residues 29-1285: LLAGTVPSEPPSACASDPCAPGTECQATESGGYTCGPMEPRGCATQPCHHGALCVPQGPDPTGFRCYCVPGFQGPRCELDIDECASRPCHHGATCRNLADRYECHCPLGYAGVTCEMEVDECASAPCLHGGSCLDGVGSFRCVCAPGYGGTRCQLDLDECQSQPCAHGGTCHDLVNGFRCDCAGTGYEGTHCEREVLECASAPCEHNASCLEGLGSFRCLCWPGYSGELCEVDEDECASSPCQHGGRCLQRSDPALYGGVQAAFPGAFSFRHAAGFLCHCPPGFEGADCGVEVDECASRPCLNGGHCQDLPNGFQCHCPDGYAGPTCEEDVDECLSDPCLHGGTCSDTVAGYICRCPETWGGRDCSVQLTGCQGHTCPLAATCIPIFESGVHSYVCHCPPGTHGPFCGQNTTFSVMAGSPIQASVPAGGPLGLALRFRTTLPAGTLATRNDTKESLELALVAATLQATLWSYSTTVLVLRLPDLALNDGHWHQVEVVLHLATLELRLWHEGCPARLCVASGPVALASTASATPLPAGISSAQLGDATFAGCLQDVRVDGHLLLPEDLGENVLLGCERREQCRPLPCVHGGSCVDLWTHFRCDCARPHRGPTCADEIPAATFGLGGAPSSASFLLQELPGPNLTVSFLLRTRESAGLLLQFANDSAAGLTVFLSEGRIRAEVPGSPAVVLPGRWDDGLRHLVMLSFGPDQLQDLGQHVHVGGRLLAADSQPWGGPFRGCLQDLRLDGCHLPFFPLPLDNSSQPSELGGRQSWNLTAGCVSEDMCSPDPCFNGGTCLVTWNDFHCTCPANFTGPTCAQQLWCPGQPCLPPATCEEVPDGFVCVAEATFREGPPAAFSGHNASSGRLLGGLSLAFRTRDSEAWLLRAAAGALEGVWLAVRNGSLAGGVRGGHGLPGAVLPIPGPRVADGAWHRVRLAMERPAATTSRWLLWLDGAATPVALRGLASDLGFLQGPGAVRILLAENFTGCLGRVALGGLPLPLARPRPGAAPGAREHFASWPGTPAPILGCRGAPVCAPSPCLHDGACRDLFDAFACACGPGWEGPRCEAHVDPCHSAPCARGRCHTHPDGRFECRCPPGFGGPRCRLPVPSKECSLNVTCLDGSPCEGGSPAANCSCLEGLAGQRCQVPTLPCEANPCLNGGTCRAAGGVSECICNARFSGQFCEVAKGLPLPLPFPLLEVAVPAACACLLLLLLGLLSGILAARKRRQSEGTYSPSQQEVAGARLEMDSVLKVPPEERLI

Key:
Experiment in all cases: co-IP; HEK293T cells co-transfected pairwise with a FLAG and an HA construct, 48 h; lysis in TBS (30 mM Tris-HCl pH 7.4, 150 mM NaCl) with 0.5% Nonidet P40; FLAG-IP on ANTI-FLAG M2 Affinity Gel 60-90 min at 4°C, elution with FLAG peptide; Western blot with HA and FLAG antibodies; for mutants HA/FLAG signal in eluates relative to WT, three biological replicates
[1] = target: T1, CRB1-FLAG p.C948Y (human) (UniProt P82279)
T1 sequence: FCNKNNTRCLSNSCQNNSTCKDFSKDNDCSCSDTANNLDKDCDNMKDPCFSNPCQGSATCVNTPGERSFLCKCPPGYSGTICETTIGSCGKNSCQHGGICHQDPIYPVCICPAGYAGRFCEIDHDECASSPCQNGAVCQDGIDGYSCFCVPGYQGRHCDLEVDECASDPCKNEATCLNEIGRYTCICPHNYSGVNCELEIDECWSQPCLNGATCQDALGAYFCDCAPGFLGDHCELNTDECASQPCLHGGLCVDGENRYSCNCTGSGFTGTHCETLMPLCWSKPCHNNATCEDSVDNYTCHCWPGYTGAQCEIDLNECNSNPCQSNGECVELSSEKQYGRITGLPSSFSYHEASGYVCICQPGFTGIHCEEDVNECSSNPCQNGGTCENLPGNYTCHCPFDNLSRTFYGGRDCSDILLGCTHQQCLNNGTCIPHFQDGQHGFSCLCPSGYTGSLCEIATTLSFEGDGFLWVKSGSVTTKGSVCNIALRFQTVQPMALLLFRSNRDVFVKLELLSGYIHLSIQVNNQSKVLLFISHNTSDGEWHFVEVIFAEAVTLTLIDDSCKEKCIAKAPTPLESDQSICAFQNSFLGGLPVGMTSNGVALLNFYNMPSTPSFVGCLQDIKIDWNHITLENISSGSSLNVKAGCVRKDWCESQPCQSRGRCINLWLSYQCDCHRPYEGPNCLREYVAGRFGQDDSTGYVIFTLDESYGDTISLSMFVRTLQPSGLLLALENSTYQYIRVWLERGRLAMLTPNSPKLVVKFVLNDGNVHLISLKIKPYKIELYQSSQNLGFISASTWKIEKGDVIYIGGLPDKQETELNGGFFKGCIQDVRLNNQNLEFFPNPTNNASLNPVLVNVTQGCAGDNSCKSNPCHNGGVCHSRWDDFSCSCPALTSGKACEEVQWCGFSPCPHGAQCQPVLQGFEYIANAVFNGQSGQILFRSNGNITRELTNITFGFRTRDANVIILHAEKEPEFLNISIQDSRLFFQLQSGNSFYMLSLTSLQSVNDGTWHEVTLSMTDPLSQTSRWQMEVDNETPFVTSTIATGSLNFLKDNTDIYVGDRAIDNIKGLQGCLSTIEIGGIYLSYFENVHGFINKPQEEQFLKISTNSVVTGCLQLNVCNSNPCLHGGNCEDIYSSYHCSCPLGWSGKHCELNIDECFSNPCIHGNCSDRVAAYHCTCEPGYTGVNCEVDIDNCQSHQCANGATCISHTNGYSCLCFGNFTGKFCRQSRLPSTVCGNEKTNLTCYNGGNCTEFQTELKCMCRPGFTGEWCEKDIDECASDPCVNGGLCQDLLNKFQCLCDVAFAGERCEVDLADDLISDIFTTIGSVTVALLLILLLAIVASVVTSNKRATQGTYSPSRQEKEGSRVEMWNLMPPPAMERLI

[2] = target: T2, Human CRB3 (Crumbs homolog 3) (human) (UniProt Q9BUF7)
T2 sequence: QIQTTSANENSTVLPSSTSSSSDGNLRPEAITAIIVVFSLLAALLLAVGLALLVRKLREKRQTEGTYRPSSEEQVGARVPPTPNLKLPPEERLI

[3] = target: Human canonical CRB2 (Crumbs homolog 2) (human) (UniProt Q5IJ48)

Human canonical CRB2 (Crumbs homolog 2) (from UniProt Q5IJ48-1 29-1285)
binding [1]: binds
binding [2]: no binding
binding [3]: binds
